The list shows a part of the results.
Assays:
Test in all cases: log2 fold change, soluble protein after heating vs DMSO (PISA); higher = thermal stabilisation; K562 cells, 10 uM, 30 min; active = over 0.2 and 3.5 SD of the protein, either way, in both replicates (recomputed)
[1] = compound: CS(=O)(=O)c1ccc(-c2cnc(N)c(C(=O)Nc3ccccc3)n2)cc1
In short: (§1)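 K562 cells at 2×10^6 cells/mL were treated with 10 μM compound for 30 min. Aliquots were heated for 3 min across 48°C-58°C, pooled, and extracted in PBS with 0.5% NP-40 at 4°C; soluble protein was the supernatant after 21,000xg for 90 min. Soluble protein was quantified by TMTpro 16plex LC-MS/MS with channel sums equalised, and reported as log2 fold change in thermal stability against DMSO controls, with values from duplicates.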

The chains behind the UniProt entries cited, without tags or fusion partners. Where a name states a change or a piece, a line headed by the entry shows the natural chain unless it says otherwise.
UniProt Q8TDN6: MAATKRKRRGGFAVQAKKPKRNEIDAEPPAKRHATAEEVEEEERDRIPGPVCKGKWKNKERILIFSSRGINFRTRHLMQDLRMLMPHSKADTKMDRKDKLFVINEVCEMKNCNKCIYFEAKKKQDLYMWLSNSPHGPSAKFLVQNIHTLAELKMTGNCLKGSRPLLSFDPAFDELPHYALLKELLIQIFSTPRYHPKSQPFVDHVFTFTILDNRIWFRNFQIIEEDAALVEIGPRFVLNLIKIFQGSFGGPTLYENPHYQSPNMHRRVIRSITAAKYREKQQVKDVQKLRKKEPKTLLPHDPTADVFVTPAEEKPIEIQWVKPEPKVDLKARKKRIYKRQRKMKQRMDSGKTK
UniProt Q9H0E9, whole entry, looked up: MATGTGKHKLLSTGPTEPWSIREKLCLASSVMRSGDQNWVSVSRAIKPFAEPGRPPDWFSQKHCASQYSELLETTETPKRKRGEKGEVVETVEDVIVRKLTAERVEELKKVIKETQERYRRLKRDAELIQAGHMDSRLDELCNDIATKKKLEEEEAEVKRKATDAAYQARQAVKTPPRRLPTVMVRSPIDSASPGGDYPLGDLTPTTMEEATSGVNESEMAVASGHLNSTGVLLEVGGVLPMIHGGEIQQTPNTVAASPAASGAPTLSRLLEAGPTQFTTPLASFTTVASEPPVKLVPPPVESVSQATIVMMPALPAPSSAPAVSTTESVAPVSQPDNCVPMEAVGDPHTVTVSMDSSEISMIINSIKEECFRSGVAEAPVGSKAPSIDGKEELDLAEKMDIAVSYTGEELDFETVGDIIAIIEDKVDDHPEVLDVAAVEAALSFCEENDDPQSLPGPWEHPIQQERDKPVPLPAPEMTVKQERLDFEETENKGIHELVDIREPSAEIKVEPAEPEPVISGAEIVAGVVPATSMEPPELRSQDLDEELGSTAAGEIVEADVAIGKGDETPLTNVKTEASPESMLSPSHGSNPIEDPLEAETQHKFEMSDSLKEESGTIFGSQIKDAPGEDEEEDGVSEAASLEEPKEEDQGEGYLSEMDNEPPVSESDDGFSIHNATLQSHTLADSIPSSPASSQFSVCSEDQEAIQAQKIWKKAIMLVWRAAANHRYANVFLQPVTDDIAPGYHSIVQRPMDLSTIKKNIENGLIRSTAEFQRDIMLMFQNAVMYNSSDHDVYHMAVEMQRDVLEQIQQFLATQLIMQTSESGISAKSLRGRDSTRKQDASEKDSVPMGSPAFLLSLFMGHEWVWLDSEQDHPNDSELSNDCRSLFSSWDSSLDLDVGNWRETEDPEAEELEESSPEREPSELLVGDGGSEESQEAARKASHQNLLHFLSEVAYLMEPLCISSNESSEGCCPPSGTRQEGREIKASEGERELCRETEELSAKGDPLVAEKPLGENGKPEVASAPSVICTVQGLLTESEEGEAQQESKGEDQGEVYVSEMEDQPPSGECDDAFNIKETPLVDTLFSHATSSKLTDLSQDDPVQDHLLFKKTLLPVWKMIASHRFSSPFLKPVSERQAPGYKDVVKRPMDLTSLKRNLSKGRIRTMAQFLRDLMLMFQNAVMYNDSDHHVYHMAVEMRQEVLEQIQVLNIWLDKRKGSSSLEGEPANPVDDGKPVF
UniProt Q9NQS1: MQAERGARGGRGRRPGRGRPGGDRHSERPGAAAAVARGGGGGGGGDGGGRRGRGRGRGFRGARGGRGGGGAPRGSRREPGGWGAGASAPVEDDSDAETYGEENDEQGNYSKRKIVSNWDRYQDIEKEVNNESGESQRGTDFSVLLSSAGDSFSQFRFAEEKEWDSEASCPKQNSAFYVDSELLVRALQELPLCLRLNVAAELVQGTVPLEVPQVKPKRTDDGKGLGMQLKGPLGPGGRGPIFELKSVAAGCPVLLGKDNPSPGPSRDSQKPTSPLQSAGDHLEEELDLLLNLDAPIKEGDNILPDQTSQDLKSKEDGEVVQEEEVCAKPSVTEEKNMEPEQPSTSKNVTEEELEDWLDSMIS
UniProt O14977: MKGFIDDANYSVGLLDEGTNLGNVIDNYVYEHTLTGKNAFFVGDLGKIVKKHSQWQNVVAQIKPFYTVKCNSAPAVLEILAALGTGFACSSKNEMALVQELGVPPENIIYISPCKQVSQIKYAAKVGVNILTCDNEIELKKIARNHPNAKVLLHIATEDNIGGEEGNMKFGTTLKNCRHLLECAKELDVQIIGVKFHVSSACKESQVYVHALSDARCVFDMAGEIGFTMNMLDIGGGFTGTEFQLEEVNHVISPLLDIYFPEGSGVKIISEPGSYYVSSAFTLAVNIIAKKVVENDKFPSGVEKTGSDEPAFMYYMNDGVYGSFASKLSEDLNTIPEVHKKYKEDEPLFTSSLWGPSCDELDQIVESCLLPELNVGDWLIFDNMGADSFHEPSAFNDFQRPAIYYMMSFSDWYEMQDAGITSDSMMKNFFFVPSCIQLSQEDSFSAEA
UniProt Q96IK1: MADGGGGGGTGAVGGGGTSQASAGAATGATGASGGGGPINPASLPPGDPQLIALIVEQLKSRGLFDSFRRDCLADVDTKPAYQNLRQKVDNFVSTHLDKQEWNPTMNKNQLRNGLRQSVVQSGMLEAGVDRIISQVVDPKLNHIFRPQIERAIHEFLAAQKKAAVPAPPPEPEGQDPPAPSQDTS
UniProt O43505: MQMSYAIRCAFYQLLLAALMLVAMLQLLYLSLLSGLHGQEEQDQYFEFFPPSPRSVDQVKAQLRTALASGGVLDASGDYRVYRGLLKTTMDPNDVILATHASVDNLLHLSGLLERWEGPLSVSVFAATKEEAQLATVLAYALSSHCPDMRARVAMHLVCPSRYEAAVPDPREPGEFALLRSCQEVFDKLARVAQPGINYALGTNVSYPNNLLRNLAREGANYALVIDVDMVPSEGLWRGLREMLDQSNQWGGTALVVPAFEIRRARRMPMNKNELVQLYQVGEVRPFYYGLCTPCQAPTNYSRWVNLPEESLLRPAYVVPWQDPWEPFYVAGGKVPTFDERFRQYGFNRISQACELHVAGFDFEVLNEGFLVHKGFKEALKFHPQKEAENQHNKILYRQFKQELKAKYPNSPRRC
UniProt P46100: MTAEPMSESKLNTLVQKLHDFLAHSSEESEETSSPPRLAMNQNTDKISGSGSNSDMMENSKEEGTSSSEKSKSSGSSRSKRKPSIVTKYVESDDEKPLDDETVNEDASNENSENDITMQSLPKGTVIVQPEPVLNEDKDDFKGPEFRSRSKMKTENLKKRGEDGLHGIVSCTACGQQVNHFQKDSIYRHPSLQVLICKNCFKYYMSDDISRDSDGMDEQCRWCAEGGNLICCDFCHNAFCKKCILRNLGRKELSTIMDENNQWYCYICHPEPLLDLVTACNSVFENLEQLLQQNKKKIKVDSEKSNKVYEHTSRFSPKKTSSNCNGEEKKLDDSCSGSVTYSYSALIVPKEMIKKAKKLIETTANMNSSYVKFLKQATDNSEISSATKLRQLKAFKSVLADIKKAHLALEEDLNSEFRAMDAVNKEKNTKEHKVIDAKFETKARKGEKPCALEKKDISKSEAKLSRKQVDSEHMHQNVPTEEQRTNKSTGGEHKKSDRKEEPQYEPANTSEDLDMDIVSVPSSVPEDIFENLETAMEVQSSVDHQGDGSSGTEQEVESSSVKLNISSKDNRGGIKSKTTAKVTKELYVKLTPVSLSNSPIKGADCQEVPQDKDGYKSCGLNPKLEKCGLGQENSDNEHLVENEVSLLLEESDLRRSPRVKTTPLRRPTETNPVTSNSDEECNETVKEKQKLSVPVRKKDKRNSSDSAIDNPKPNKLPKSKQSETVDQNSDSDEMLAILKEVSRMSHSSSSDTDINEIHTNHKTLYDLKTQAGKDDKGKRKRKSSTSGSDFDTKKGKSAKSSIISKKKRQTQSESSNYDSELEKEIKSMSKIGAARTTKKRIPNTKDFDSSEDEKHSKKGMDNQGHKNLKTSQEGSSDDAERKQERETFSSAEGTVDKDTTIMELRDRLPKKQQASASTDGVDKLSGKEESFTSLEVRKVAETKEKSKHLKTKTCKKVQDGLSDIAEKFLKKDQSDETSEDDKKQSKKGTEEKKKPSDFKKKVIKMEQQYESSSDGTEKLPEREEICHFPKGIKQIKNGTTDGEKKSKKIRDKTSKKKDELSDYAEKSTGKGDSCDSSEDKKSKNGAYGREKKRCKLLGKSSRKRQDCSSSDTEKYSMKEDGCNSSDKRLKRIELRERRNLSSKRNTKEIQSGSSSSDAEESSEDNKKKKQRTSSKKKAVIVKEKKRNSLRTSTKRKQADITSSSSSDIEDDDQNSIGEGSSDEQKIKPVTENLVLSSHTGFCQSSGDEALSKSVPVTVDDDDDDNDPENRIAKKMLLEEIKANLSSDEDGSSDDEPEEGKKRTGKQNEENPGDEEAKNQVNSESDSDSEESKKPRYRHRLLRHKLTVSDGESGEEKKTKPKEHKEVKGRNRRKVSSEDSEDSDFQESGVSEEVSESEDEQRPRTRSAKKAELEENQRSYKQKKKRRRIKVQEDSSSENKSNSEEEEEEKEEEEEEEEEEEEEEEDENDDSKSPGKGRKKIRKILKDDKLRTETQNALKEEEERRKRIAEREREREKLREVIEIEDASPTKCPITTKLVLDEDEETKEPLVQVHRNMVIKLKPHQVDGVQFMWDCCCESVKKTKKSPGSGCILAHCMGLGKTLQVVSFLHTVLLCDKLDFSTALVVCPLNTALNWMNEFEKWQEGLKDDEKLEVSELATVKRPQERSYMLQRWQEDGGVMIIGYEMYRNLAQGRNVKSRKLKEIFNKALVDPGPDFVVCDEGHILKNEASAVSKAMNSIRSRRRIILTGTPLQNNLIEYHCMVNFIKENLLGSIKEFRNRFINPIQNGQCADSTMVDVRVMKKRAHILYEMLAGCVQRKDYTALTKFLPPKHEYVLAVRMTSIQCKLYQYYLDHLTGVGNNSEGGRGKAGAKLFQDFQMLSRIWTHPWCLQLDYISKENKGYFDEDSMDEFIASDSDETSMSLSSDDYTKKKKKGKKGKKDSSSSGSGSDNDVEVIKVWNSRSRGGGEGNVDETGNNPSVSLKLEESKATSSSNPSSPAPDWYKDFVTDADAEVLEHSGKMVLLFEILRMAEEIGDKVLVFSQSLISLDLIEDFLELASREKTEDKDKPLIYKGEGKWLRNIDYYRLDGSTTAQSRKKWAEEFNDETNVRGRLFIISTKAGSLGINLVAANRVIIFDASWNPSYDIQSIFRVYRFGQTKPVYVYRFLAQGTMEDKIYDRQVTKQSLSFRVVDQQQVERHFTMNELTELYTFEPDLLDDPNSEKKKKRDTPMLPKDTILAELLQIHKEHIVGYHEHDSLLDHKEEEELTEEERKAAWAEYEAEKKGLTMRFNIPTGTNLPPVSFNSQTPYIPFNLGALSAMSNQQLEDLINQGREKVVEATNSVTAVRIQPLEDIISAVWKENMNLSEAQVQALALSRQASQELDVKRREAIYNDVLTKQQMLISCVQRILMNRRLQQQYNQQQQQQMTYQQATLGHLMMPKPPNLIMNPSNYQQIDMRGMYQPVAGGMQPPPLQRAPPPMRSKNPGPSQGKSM
UniProt Q5T6C5: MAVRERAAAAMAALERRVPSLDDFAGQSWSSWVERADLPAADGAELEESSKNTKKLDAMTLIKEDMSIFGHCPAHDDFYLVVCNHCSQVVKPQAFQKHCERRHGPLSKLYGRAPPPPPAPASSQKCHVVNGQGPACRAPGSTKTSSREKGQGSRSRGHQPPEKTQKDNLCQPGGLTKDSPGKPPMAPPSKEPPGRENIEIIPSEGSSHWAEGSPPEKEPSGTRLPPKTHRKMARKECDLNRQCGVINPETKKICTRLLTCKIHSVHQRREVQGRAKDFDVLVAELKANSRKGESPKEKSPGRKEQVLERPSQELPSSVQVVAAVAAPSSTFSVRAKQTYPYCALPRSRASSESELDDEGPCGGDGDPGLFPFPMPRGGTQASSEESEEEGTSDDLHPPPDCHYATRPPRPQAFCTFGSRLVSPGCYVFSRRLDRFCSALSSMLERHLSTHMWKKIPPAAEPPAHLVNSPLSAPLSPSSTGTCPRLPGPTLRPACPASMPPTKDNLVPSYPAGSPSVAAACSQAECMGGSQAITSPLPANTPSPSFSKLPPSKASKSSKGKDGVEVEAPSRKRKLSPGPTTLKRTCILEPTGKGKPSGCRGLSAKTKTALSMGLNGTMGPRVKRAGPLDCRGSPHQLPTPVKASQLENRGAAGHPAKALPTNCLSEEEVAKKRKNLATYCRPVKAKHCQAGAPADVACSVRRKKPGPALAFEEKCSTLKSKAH
UniProt O60513: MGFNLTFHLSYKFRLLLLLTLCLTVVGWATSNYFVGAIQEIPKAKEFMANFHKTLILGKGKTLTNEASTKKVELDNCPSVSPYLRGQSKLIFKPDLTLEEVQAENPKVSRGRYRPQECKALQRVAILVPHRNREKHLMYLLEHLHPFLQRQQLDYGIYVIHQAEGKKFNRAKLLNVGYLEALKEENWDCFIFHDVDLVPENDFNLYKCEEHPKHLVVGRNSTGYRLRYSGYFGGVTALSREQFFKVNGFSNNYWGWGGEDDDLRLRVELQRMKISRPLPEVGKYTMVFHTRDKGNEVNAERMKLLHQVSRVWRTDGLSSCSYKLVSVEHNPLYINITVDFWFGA

crizotinib = compound: C[C@@H](Oc1cc(-c2cnn(C3CCNCC3)c2)cnc1N)c1c(Cl)ccc(F)c1Cl [crizotinib]
In short: as §1

doramapimod = compound: Cc1ccc(-n2nc(C(C)(C)C)cc2NC(=O)Nc2ccc(OCCN3CCOCC3)c3ccccc23)cc1 [doramapimod]
In short: as §1

ispinesib = compound: Cc1ccc(C(=O)N(CCCN)[C@@H](c2nc3cc(Cl)ccc3c(=O)n2Cc2ccccc2)C(C)C)cc1 [ispinesib]
In short: as §1

[2] = compound: C[C@@H]1COCCN1C2=NC(=NC(=C2)C3(CC3)S(=O)(=O)C)C4=C5C=CNC5=CC=C4
In short: as §1

[3] = compound: C[C@H](C1=CC=C(C=C1)C(=O)NC2=C3C=CNC3=NC=C2)N
In short: as §1

gandotinib = compound: Cc1cc(Nc2cc(CN3CCOCC3)c3nc(C)c(Cc4ccc(Cl)cc4F)n3n2)n[nH]1 [gandotinib]
In short: as §1

[4] = compound: Cc1cc(SCc2sc(-c3ccc(C(F)(F)F)cc3)nc2C)ccc1OCC(=O)O
In short: as §1

duvelisib = compound: C[C@H](Nc1ncnc2nc[nH]c12)c1cc2cccc(Cl)c2c(=O)n1-c1ccccc1 [duvelisib]
In short: as §1

tozasertib = compound: Cc1cc(Nc2cc(N3CCN(C)CC3)nc(Sc3ccc(NC(=O)C4CC4)cc3)n2)n[nH]1 [tozasertib]
In short: as §1

Measured: log2 fold change

BRCA1 isoform 7 (UniProt P38398)
inactive: [1] 0.158 | crizotinib 0.02 | doramapimod -0.03 | ispinesib -0.154

BRIX1 (UniProt Q8TDN6)
inactive: [1] -0.027 | crizotinib -0.097 | [2] -0.292 | [3] 0.318 | gandotinib 0.056 | [4] 0.093 | doramapimod 0.288 | ispinesib 0.166

BRAP (UniProt Q7Z569)
inactive: [1] 0.027 | crizotinib -0.205 | [2] 0.008 | [3] -0.01 | gandotinib -0.024 | [4] 0.093 | doramapimod 0.081 | ispinesib -0.089

AUP1 (UniProt Q9Y679)
inactive: [1] -0.032 | crizotinib -0.123 | [2] 0.071 | [3] -0.015 | gandotinib -0.181 | [4] 0.06 | doramapimod -0.033
active: ispinesib -0.41

BRD8 isoform 2 (UniProt Q9H0E9)
inactive: [1] -0.134 | crizotinib 0.044 | [2] -0.11 | [3] 0.042 | gandotinib 0.113 | [4] -0.012 | doramapimod 0.04 | ispinesib 0.061

BRD8 (UniProt Q9H0E9)
inactive: [1] 0 | crizotinib -0.021 | [2] 0.018 | [3] 0.06 | gandotinib -0.013 | [4] -0.054 | doramapimod 0.023 | ispinesib -0.022

BAD (UniProt Q92934)
inactive: [1] 0.171 | crizotinib 0.076 | [2] 0.076 | [3] -0.036 | gandotinib 0.018 | [4] -0.033 | doramapimod 0.003 | ispinesib 0.025

BPIFA1 (UniProt Q9NP55)
inactive: [1] 0.189 | crizotinib 0.184 | doramapimod -0.357 | ispinesib 1

BCCIP isoform 2 (UniProt Q9P287)
inactive: [1] -0.006 | crizotinib -0.012 | [2] 0 | [3] 0.062 | gandotinib -0.047 | [4] 0.011 | doramapimod -0.008 | ispinesib 0.059

ATXN7L3 isoform 2 (UniProt Q14CW9)
inactive: [1] 0.001 | crizotinib -0.043 | doramapimod 0.169 | ispinesib -0.007

BCL7C isoform 2 (UniProt Q8WUZ0)
inactive: [1] -0.079 | [2] 0.189 | [3] 0.103

BRD2 isoform 2 (UniProt P25440)
inactive: [1] 0.618 | crizotinib 0.006 | [3] -0.065 | gandotinib -0.089 | [4] -0.083 | doramapimod 0.064

BRAF, A0A2R8Y8E0
inactive: crizotinib 0.262 | ispinesib -0.223
active: doramapimod -0.757

BRD4 (UniProt O60885)
inactive: [1] 0.081 | [2] 0.288 | [3] -0.009 | gandotinib -0.034 | [4] -0.044 | ispinesib -0.022

BSCL2 isoform 4 (UniProt Q96G97)
inactive: [2] 0.05 | [3] -0.007 | gandotinib -0.086 | [4] 0.111

BORCS7 (UniProt Q96B45)
inactive: crizotinib 0.075 | [3] -0.127 | duvelisib 0.196 | gandotinib 0.21 | tozasertib -0.003 | [4] -0.022 | doramapimod 0.04

AVEN (UniProt Q9NQS1)
inactive: [2] 0.189 | [3] 0.147 | duvelisib 0.142 | gandotinib -0.029 | [4] 0.146

BAHD1 (UniProt Q8TBE0)
inactive: gandotinib -0.126

ATXN2 (UniProt F8W0B5)
inactive: [1] -0.061 | [3] -0.014 | duvelisib 0.041 | gandotinib -0.226 | [4] -0.024 | ispinesib 0.01

AZIN1 (UniProt O14977)
inactive: ispinesib -0.012

BOD1 (UniProt Q96IK1)
inactive: gandotinib -0.069 | ispinesib 0.204

BCL2L12 (UniProt Q9HB09)
inactive: [2] 0.094 | [3] -0.013 | duvelisib -0.162 | gandotinib -0.095 | [4] 0.135 | ispinesib -0.174

BCAS3 isoform 8 (UniProt Q9H6U6)
inactive: crizotinib 0.034 | [3] -0.049 | duvelisib -0.062 | gandotinib 0.006 | tozasertib 0.024 | [4] 0.034 | doramapimod 0.093

AUNIP isoform 2 (UniProt Q9H7T9)
inactive: [1] 0.117 | [3] -0.007 | [4] 0.056

BAP18 isoform 3 (UniProt Q8IXM2)
inactive: gandotinib 0.147

BEX4 (UniProt Q9NWD9)
inactive: [1] -0.184 | [3] -0.023 | duvelisib 0.019 | [4] 0.172

B3GALT6 (UniProt Q96L58)
inactive: crizotinib 0.183 | doramapimod -0.05 | ispinesib -0.09

AURKA (UniProt O14965)
active: gandotinib 1.01
inactive: [1] 0.198 | [2] -0.251 | [3] 0.066 | [4] -0.013 | doramapimod 0.051 | ispinesib -0.107

B4GAT1 (UniProt O43505)
inactive: crizotinib 0.041 | [2] 0.042 | [3] 0.196 | duvelisib 0.052 | gandotinib 0.349 | tozasertib -0.054 | [4] -0.031 | doramapimod -0.085 | ispinesib -0.006

ATXN3 isoform 1 (UniProt P54252)
inactive: crizotinib -0.028 | [3] 0.076 | gandotinib -0.028 | doramapimod 0.087 | ispinesib -0.043

BLZF1 (UniProt Q9H2G9)
inactive: [1] -0.204 | [3] -0.089

BLVRA (UniProt C9J1E1)
inactive: crizotinib -0.422 | [3] 0.137 | duvelisib 0.007 | gandotinib -0.036 | [4] -0.018 | doramapimod -0.081

BRMS1 (UniProt Q9HCU9)
inactive: [2] -0.034 | gandotinib -0.174 | [4] -0.046

BNIP3L (UniProt O60238)
inactive: crizotinib -0.185 | [3] -0.059 | duvelisib 0.313 | tozasertib -0.061 | [4] -0.085 | doramapimod -0.133 | ispinesib -0.214

AUH (UniProt Q13825)
inactive: crizotinib -0.301 | [3] -0.105 | gandotinib -0.127 | [4] 0.135 | doramapimod 0.071 | ispinesib -0.069

BFAR (UniProt Q9NZS9)
inactive: [2] 0.046

AURKB isoform 5 (UniProt Q96GD4)
inactive: duvelisib -0.123 | tozasertib 1.11 | [4] -0.032

ATRX (UniProt P46100)
inactive: [3] 0.255 | gandotinib -0.037

BCL7A isoform 2 (UniProt Q4VC05)
inactive: [1] -0.09 | [2] 0.028 | tozasertib -0.004

ATXN7L2 (UniProt Q5T6C5)
inactive: [2] 0.067

AXIN1 (UniProt O15169)
inactive: gandotinib -0.016

BBC3 (UniProt Q9BXH1)
inactive: crizotinib 0.259 | [2] -0.049 | [3] -0.039 | duvelisib 0.115 | gandotinib -0.003 | tozasertib 0.015 | [4] 0.015 | doramapimod -0.052 | ispinesib 0.044

BCL7B (UniProt Q9BQE9)
inactive: crizotinib 0.337 | [3] 0.02 | duvelisib -0.048 | [4] -0.013 | doramapimod -0.06

BHMT (UniProt Q93088)
inactive: [1] 0.165 | duvelisib -0.226 | [4] -0.057

AZI2 (UniProt Q9H6S1)
inactive: [1] 0.074 | ispinesib -0.019

BAIAP2 isoform 4 (UniProt Q9UQB8)
inactive: [1] -0.112 | [3] 0.29

B4GALT4 (UniProt O60513)
inactive: [1] -0.014 | gandotinib 0.249 | ispinesib 0.133

BNIP3 (UniProt Q12983)
inactive: [1] -0.144 | [2] -0.117 | gandotinib -0.169 | tozasertib -0.023 | ispinesib -0.147

BPNT1 (UniProt A6NF51)
inactive: crizotinib -0.03 | [2] -0.046 | tozasertib 0.004 | doramapimod 0.059 | ispinesib -0.084

BORCS8 (UniProt Q96FH0)
inactive: tozasertib -0.003 | ispinesib 0.087

ATXN2L (UniProt H3BUF6)
inactive: crizotinib -0.023 | gandotinib 0.279 | doramapimod 0.092 | ispinesib -0.005

BCDIN3D (UniProt Q7Z5W3)
inactive: [3] -0.103 | tozasertib -0.037

2 entries drawn at random from the list so far, as already listed:
BAP18 isoform 3 (UniProt Q8IXM2)
inactive: gandotinib 0.147

BRMS1 (UniProt Q9HCU9)
inactive: [2] -0.034 | gandotinib -0.174 | [4] -0.046

— the supplement of paper PMC10849652
